The values below are quoted from earlier work in article PMC6814258 (Pharmaceutical research, 2019).

This series has as its system KV7.1. As to conditions: previously shown to inhibit KV7.1; cited from earlier work.

Take `CC(C)OC(=O)C(C)(C)Oc1ccc(C(=O)c2ccc(Cl)cc2)cc1` [Fenofibrate]: the IC50 (in general, the concentration at which inhibition is half-maximal) was 1 µM.
